Positions count from the first letter of the chain named. Results are given in words; binding and its absence hold for the method and conditions named. Binding seen in cells or lysates may run through a third protein. Some entries that bind do so weakly or less than the wild type. Sequences can lack the tags named with a protein.

The chains behind the UniProt entries cited, without tags or fusion partners.
UniProt Q14289: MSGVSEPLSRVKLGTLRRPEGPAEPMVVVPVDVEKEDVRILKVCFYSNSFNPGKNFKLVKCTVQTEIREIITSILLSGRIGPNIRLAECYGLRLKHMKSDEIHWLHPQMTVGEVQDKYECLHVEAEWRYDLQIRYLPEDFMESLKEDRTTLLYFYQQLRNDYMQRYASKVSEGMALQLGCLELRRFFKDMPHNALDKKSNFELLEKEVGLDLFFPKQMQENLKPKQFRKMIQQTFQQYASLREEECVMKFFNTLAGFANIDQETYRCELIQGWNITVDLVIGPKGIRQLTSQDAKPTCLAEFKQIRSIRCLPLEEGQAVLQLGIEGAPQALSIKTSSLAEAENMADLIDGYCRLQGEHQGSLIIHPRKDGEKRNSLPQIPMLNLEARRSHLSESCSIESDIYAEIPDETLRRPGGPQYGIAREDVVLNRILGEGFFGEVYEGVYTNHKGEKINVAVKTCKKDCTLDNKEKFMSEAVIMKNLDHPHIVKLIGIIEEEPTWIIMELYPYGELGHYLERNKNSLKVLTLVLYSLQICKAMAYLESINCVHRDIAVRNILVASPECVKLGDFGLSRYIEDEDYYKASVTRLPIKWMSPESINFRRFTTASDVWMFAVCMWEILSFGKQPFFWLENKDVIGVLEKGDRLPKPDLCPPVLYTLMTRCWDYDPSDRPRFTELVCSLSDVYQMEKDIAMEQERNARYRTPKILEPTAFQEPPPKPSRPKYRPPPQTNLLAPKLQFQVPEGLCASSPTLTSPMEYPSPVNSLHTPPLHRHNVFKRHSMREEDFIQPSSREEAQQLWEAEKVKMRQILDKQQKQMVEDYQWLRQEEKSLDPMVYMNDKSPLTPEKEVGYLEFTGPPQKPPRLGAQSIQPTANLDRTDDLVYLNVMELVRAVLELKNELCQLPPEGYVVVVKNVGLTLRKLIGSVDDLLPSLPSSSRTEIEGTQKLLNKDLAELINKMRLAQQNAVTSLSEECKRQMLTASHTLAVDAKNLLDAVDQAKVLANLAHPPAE

Test [1] has as its target T1, GST-LD fusion protein (human) (UniProt O60711).
T1 sequence: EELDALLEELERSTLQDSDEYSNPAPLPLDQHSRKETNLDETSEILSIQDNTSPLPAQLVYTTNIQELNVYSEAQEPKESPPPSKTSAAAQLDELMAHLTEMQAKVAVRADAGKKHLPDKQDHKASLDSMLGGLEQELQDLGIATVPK
Nature of the test: GST pull-down from JY8-8 lysate, anti-Pyk2 immunoblot. For orientation: Immunoblotting shows a protein as a band on a membrane.

The target of test [2] is T2, GST-LD with a mutation in the second LD motif (human) (UniProt O60711).
T2 sequence: T1 sequence with D40A, E41A, T42A
Described as above.

On to “PYK2 (from UniProt Q14289 1-1009) (enzyme)”, for which the binding result in test [1] and in test [2] was “binds” in each case.

The record behind these values is patent publication US20020177231A1.
